Source: article PMC10216487

Chains of the proteins cited; added tags and fusions are not shown.
UniProt Q96RK0: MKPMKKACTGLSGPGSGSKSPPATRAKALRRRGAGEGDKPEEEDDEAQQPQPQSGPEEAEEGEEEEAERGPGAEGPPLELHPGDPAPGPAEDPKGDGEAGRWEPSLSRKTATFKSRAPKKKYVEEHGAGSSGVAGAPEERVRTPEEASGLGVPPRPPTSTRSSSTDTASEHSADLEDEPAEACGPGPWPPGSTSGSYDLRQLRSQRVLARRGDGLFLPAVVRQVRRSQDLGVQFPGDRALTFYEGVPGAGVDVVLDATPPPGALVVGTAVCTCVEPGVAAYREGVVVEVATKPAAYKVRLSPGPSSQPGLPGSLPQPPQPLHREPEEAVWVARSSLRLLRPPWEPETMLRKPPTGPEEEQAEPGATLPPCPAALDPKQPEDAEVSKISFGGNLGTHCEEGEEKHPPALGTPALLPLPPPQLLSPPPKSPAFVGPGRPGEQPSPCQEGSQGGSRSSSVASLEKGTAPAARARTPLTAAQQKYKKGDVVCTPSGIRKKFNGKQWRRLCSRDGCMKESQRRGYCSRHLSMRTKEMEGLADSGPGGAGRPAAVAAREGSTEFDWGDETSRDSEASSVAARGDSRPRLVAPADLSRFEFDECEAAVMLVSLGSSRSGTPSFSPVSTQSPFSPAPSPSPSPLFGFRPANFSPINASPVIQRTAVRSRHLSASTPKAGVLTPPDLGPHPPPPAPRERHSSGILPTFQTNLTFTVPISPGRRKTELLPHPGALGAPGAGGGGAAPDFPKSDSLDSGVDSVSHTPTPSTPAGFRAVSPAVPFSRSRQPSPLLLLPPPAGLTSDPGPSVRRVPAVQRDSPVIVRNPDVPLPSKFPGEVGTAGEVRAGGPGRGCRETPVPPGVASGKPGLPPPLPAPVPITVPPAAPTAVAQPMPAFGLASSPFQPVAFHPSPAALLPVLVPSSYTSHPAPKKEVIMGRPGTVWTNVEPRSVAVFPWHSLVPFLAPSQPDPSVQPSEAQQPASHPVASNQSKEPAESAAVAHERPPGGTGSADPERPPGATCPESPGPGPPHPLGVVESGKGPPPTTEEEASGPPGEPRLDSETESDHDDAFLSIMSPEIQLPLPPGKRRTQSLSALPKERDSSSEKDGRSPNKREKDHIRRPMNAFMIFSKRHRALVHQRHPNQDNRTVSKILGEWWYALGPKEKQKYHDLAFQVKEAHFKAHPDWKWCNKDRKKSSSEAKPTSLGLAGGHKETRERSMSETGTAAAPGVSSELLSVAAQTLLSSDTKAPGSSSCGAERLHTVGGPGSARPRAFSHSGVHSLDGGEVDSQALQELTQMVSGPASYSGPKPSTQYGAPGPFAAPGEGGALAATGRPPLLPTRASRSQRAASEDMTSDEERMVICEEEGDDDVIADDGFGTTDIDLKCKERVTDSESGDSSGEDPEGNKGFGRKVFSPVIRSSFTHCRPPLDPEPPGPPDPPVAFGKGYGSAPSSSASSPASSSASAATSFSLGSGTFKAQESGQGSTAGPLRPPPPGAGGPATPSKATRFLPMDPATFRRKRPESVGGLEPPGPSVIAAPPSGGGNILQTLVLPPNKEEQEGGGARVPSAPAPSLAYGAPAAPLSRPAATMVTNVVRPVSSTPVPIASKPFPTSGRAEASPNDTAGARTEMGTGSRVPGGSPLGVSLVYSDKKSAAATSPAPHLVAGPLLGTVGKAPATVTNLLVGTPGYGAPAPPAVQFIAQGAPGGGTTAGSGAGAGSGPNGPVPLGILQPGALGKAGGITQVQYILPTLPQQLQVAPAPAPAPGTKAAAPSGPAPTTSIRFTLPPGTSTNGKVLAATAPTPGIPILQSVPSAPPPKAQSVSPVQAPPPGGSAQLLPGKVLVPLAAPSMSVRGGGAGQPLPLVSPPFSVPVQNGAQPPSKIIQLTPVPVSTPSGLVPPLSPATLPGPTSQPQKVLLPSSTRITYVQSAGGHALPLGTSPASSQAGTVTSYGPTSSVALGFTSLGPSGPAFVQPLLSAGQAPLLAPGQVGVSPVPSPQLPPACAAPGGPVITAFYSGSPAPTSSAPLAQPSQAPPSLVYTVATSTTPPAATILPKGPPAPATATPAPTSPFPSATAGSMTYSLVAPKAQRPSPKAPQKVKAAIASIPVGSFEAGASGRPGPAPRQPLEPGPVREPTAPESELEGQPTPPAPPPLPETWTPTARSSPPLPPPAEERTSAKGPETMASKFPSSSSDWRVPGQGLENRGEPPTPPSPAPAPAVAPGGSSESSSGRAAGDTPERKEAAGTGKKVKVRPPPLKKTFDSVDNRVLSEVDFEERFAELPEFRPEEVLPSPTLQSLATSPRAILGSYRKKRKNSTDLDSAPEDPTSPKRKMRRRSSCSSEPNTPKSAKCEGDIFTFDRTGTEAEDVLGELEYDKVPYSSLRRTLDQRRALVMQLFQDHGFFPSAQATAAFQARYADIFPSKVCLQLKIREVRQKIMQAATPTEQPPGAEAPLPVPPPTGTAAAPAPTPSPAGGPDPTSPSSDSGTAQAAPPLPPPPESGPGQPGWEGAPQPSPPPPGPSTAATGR
UniProt O00571: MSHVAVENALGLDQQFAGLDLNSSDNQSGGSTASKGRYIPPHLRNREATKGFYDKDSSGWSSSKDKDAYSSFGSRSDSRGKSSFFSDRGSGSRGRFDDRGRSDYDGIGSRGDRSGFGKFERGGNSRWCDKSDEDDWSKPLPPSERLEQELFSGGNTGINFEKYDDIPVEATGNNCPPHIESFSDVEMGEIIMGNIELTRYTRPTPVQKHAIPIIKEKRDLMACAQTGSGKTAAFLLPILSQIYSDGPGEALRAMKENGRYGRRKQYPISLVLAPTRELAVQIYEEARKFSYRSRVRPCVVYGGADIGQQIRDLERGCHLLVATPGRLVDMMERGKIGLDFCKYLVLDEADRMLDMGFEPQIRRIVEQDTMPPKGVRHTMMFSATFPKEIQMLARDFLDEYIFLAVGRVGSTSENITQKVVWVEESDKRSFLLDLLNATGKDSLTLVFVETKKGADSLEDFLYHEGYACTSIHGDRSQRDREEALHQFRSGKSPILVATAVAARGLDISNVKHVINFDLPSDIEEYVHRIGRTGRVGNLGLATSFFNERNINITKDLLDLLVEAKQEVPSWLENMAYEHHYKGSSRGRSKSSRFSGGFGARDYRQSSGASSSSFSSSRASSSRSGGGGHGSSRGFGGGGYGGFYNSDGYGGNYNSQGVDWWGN
UniProt P13010: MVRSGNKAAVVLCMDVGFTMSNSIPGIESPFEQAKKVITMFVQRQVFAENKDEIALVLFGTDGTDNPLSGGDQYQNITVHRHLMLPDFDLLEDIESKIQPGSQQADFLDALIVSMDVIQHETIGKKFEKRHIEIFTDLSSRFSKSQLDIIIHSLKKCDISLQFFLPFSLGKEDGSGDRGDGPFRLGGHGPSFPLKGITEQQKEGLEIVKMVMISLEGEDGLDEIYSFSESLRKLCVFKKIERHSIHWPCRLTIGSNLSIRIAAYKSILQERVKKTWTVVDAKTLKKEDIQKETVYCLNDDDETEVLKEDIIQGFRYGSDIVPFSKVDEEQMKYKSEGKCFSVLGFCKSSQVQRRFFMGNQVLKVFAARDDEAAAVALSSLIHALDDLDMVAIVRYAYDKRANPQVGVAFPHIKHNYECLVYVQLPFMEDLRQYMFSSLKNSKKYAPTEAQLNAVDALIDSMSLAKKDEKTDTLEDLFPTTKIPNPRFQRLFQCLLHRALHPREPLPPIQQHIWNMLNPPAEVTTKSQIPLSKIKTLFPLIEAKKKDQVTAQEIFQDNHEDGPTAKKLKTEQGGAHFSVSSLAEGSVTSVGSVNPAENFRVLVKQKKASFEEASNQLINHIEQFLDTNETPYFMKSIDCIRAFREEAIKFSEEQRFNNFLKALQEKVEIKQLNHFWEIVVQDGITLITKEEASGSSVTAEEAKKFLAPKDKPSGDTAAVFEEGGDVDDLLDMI
UniProt P51608: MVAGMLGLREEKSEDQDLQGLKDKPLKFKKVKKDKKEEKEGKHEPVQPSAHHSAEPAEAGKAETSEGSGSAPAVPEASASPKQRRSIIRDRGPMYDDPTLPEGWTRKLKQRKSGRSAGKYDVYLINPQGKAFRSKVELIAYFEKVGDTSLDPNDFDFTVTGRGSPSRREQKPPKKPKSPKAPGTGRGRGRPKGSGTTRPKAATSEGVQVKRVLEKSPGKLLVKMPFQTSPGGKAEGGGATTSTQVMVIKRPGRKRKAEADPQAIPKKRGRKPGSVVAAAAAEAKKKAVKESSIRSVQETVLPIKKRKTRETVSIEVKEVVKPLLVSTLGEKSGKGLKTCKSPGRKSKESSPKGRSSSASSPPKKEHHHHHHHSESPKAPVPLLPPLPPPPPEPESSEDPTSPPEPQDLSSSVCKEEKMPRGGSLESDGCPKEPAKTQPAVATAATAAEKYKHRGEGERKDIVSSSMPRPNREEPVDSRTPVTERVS
UniProt Q9NR30: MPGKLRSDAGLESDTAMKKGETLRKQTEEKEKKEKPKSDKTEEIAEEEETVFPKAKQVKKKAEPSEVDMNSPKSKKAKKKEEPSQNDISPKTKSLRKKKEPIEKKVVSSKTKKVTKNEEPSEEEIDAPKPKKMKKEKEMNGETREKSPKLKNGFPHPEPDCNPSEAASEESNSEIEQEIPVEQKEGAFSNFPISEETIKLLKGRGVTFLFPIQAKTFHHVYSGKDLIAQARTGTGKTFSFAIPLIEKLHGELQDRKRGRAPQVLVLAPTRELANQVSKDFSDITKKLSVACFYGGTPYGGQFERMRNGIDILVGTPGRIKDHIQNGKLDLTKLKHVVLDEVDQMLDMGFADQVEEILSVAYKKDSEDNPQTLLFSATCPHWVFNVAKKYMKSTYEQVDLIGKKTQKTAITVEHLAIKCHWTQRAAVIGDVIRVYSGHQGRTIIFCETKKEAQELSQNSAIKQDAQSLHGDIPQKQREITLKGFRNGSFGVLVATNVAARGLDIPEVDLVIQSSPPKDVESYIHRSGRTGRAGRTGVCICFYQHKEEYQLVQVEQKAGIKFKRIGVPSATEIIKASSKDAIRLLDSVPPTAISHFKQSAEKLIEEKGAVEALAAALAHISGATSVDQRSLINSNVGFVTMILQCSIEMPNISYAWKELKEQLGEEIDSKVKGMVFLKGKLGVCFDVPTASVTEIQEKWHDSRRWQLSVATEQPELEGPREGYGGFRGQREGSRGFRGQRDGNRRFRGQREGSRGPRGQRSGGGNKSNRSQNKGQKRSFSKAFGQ
UniProt P06748: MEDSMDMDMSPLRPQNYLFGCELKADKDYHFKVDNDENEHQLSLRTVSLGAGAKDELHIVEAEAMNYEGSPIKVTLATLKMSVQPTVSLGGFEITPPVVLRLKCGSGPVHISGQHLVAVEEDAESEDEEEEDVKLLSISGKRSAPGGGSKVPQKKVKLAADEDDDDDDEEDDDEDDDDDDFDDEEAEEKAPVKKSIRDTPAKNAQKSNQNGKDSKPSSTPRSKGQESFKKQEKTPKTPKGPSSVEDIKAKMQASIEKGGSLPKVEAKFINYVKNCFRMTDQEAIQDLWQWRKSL
UniProt Q9Y265: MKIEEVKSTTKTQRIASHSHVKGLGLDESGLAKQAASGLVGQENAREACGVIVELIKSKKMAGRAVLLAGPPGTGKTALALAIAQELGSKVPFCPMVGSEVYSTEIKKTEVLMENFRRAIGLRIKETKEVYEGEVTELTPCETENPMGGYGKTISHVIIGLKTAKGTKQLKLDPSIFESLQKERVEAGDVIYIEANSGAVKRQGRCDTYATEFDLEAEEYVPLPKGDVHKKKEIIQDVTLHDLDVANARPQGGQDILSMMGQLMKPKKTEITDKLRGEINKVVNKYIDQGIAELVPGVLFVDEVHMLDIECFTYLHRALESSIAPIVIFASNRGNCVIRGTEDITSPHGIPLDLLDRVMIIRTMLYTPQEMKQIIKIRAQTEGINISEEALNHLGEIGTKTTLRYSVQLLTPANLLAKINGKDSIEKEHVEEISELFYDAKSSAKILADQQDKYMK
UniProt Q5SSJ5: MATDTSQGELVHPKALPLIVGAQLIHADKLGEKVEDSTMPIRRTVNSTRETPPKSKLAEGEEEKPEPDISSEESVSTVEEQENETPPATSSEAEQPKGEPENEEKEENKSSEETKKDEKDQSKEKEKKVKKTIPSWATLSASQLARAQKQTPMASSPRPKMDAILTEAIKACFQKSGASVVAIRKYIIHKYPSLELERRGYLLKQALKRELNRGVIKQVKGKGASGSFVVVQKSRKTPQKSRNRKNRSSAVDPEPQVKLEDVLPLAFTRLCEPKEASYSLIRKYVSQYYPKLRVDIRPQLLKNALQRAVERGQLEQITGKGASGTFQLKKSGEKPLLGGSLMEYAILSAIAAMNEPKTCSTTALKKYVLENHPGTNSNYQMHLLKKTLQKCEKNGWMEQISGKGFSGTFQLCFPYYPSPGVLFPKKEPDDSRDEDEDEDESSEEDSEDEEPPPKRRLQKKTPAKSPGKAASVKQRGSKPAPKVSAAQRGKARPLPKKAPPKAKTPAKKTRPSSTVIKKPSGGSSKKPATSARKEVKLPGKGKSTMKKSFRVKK

B1: ATXN2L (protein, UniProt Q8WWM7 1-1075)
chain: MLKPQPLQQPSQPQQPPPTQQAVARRPPGGTSPPNGGLPGPLATSAAPPGPPAAASPCLGPVAAAGSGLRRGAEGILAPQPPPPQQHQERPGAAAIGSARGQSTGKGPPQSPVFEGVYNNSRMLHFLTAVVGSTCDVKVKNGTTYEGIFKTLSSKFELAVDAVHRKASEPAGGPRREDIVDTMVFKPSDVMLVHFRNVDFNYATKDKFTDSAIAMNSKVNGEHKEKVLQRWEGGDSNSDDYDLESDMSNGWDPNEMFKFNEENYGVKTTYDSSLSSYTVPLEKDNSEEFRQRELRAAQLAREIESSPQYRLRIAMENDDGRTEEEKHSAVQRQGSGRESPSLASREGKYIPLPQRVREGPRGGVRCSSSRGGRPGLSSLPPRGPHHLDNSSPGPGSEARGINGGPSRMSPKAQRPLRGAKTLSSPSNRPSGETSVPPPPAVGRMYPPRSPKSAAPAPISASCPEPPIGSAVPTSSASIPVTSSVSDPGVGSISPASPKISLAPTDVKELSTKEPGRTLEPQELARIAGKVPGLQNEQKRFQLEELRKFGAQFKLQPSSSPENSLDPFPPRILKEEPKGKEKEVDGLLTSEPMGSPVSSKTESVSDKEDKPPLAPSGGTEGPEQPPPPCPSQTGSPPVGLIKGEDKDEGPVAEQVKKSTLNPNAKEFNPTKPLLSVNKSTSTPTSPGPRTHSTPSIPVLTAGQSGLYSPQYISYIPQIHMGPAVQAPQMYPYPVSNSVPGQQGKYRGAKGSLPPQRSDQHQPASAPPMMQAAAAAGPPLVAATPYSSYIPYNPQQFPGQPAMMQPMAHYPSQPVFAPMLQSNPRMLTSGSHPQAIVSSSTPQYPSAEQPTPQALYATVHQSYPHHATQLHAHQPQPATTPTGSQPQSQHAAPSPVQHQAGQAPHLGSGQPQQNLYHPGALTGTPPSLPPGPSAQSPQSSFPQPAAVYAIHHQQLPHGFTNMAHVTQAHVQTGITAAPPPHPGAPHPPQVMLLHPPQSHGGPPQGAVPQSGVPALSASTPSPYPYIGHPQGEQPGQAPGFPGGADDRIREFSLAGGIWHGRAEGLQVGQDARVLGGE
B2: HNRNPA0 (protein, UniProt Q13151 1-305)
chain: MENSQLCKLFIGGLNVQTSESGLRGHFEAFGTLTDCVVVVNPQTKRSRCFGFVTYSNVEEADAAMAASPHAVDGNTVELKRAVSREDSARPGAHAKVKKLFVGGLKGDVAEGDLIEHFSQFGTVEKAEIIADKQSGKKRGFGFVYFQNHDAADKAAVVKFHPIQGHRVEVKKAVPKEDIYSGGGGGGSRSSRGGRGGRGRGGGRDQNGLSKGGGGGYNSYGGYGGGGGGGYNAYGGGGGGSSYGGSDYGNGFGGFGSYSQHQSSYGPMKSGGGGGGGGSSWGGRSNSGPYRGGYGGGGGYGGSSF
B3: GLYR1 (protein, UniProt Q49A26 1-553)
chain: MAAVSLRLGDLVWGKLGRYPPWPGKIVNPPKDLKKPRGKKCFFVKFFGTEDHAWIKVEQLKPYHAHKEEMIKINKGKRFQQAVDAVEEFLRRAKGKDQTSSHNSSDDKNRRNSSEERSRPNSGDEKRKLSLSEGKVKKNMGEGKKRVSSGSSERGSKSPLKRAQEQSPRKRGRPPKDEKDLTIPESSTVKGMMAGPMAAFKWQPTASEPVKDADPHFHHFLLSQTEKPAVCYQAITKKLKICEEETGSTSIQAADSTAVNGSITPTDKKIGFLGLGLMGSGIVSNLLKMGHTVTVWNRTAEKCDLFIQEGARLGRTPAEVVSTCDITFACVSDPKAAKDLVLGPSGVLQGIRPGKCYVDMSTVDADTVTELAQVIVSRGGRFLEAPVSGNQQLSNDGMLVILAAGDRGLYEDCSSCFQAMGKTSFFLGEVGNAAKMMLIVNMVQGSFMATIAEGLTLAQVTGQSQQTLLDILNQGQLASIFLDQKCQNILQGNFKPDFYLKYIQKDLRLAIALGDAVNHPTPMAAAANEVYKRAKALDQSDNDMSAVYRAYIH
B4: SNW1 (protein, UniProt Q13573 1-536)
chain: MALTSFLPAPTQLSQDQLEAEEKARSQRSRQTSLVSSRREPPPYGYRKGWIPRLLEDFGDGGAFPEIHVAQYPLDMGRKKKMSNALAIQVDSEGKIKYDAIARQGQSKDKVIYSKYTDLVPKEVMNADDPDLQRPDEEAIKEITEKTRVALEKSVSQKVAAAMPVRAADKLAPAQYIRYTPSQQGVAFNSGAKQRVIRMVEMQKDPMEPPRFKINKKIPRGPPSPPAPVMHSPSRKMTVKEQQEWKIPPCISNWKNAKGYTIPLDKRLAADGRGLQTVHINENFAKLAEALYIADRKAREAVEMRAQVERKMAQKEKEKHEEKLREMAQKARERRAGIKTHVEKEDGEARERDEIRHDRRKERQHDRNLSRAAPDKRSKLQRNENRDISEVIALGVPNPRTSNEVQYDQRLFNQSKGMDSGFAGGEDEIYNVYDQAWRGGKDMAQSIYRPSKNLDKDMYGDDLEARIKTNRFVPDKEFSGSDRRQRGREGPVQFEEDPFGLDKFLEEAKQHGGSKRPSDSSRPKEHEHEGKKRRKE
B5: UPF1 (protein, UniProt Q92900 1-1129)
chain: MSVEAYGPSSQTLTFLDTEEAELLGADTQGSEFEFTDFTLPSQTQTPPGGPGGPGGGGAGGPGGAGAGAAAGQLDAQVGPEGILQNGAVDDSVAKTSQLLAELNFEEDEEDTYYTKDLPIHACSYCGIHDPACVVYCNTSKKWFCNGRGNTSGSHIVNHLVRAKCKEVTLHKDGPLGETVLECYNCGCRNVFLLGFIPAKADSVVVLLCRQPCASQSSLKDINWDSSQWQPLIQDRCFLSWLVKIPSEQEQLRARQITAQQINKLEELWKENPSATLEDLEKPGVDEEPQHVLLRYEDAYQYQNIFGPLVKLEADYDKKLKESQTQDNITVRWDLGLNKKRIAYFTLPKTDSGNEDLVIIWLRDMRLMQGDEICLRYKGDLAPLWKGIGHVIKVPDNYGDEIAIELRSSVGAPVEVTHNFQVDFVWKSTSFDRMQSALKTFAVDETSVSGYIYHKLLGHEVEDVIIKCQLPKRFTAQGLPDLNHSQVYAVKTVLQRPLSLIQGPPGTGKTVTSATIVYHLARQGNGPVLVCAPSNIAVDQLTEKIHQTGLKVVRLCAKSREAIDSPVSFLALHNQIRNMDSMPELQKLQQLKDETGELSSADEKRYRALKRTAERELLMNADVICCTCVGAGDPRLAKMQFRSILIDESTQATEPECMVPVVLGAKQLILVGDHCQLGPVVMCKKAAKAGLSQSLFERLVVLGIRPIRLQVQYRMHPALSAFPSNIFYEGSLQNGVTAADRVKKGFDFQWPQPDKPMFFYVTQGQEEIASSGTSYLNRTEAANVEKITTKLLKAGAKPDQIGIITPYEGQRSYLVQYMQFSGSLHTKLYQEVEIASVDAFQGREKDFIILSCVRANEHQGIGFLNDPRRLNVALTRARYGVIIVGNPKALSKQPLWNHLLNYYKEQKVLVEGPLNNLRESLMQFSKPRKLVNTINPGARFMTTAMYDAREAIIPGSVYDRSSQGRPSSMYFQTHDQIGMISAGPSHVAAMNIPIPFNLVMPPMPPPGYFGQANGPAAGRGTPKGKTGRGGRQKNRFGLPGPSQTNLPNSQASQDVASQPFSQGALTQGYISMSQPSQMSQPGLSQPELSQDSYLGDEFKSQIDVALSQDSTYQGERAYQHGGVTGLSQY
B6: DKC1 (protein, UniProt O60832 1-514)
chain: MADAEVIILPKKHKKKKERKSLPEEDVAEIQHAEEFLIKPESKVAKLDTSQWPLLLKNFDKLNVRTTHYTPLACGSNPLKREIGDYIRTGFINLDKPSNPSSHEVVAWIRRILRVEKTGHSGTLDPKVTGCLIVCIERATRLVKSQQSAGKEYVGIVRLHNAIEGGTQLSRALETLTGALFQRPPLIAAVKRQLRVRTIYESKMIEYDPERRLGIFWVSCEAGTYIRTLCVHLGLLLGVGGQMQELRRVRSGVMSEKDHMVTMHDVLDAQWLYDNHKDESYLRRVVYPLEKLLTSHKRLVMKDSAVNAICYGAKIMLPGVLRYEDGIEVNQEIVVITTKGEAICMAIALMTTAVISTCDHGIVAKIKRVIMERDTYPRKWGLGPKASQKKLMIKQGLLDKHGKPTDSTPATWKQEYVDYSESAKKEVVAEVVKAPQVVAEAAKTAKRKRESESESDETPPAAPQLIKKEKKKSKKDKKAKAGLESGAEPGDGDSDTTKKKKKKKKAKEVELVSE

Tests used:
[1] = target: Capicua (CIC), endogenous (human (endogenous in HEK293A and NHA)) (UniProt Q96RK0); experiment: affinity purification with mass spectrometry; nuclear fractions of NHA (NHA-CIC^WT) cells; CIC IP in triplicate with matched IgG controls; 'trigger peptides' used to enhance MS sensitivity for a subset of proteins
[2] = target: Capicua (CIC), endogenous (human (endogenous in HEK293A and NHA)) (UniProt Q96RK0); experiment: affinity purification with mass spectrometry; nuclear fractions of HEK293A (HEK-CIC^WT) cells; IP with anti-endogenous CIC antibody (three replicates) or anti-Myc for stably expressed N-Myc-CIC-S (one experiment); LC-MS/MS; candidates identified in at least two of four replicates

Molecule | binding [1] | binding [2]
PRKDC (from UniProt P78527 1-4128) | binds | binds
G3BP1 (from UniProt Q13283 1-466) | binds | binds
DDX3X (from UniProt O00571 1-662) | binds | binds
XRCC5 (from UniProt P13010 1-732) | binds | binds
SMARCA5 (from UniProt O60264 1-1052) | binds | binds
SMARCC1 (from UniProt Q92922 1-1105) | binds | binds
SMARCC2 (from UniProt Q8TAQ2 1-1214) | binds | binds
XRCC6 (from UniProt P12956 1-609) | binds | binds
SMARCA2 (from UniProt P51531 1-1590) | binds | binds
MECP2 (from UniProt P51608 1-486) | binds | binds
SMARCA4 (from UniProt P51532 1-1647) | binds | binds
DDX21 (from UniProt Q9NR30 1-783) | binds | binds
SVIL (from UniProt O95425 1-2214) |  | binds
TTN (from UniProt Q8WZ42 1-34350) | binds | binds
NPM1 (from UniProt P06748 1-294) | binds | binds
TRIM28 (from UniProt Q13263 1-835) | binds | binds

Molecule | binding [1] | binding [2]
YLPM1 (from UniProt P49750 1-2146) | binds | binds
TOP1 (from UniProt P11387 1-765) | binds | binds
RUVBL1 (from UniProt Q9Y265 1-456) | binds | binds
MKI67 (from UniProt P46013 1-3256) | binds | binds
HP1BP3 (from UniProt Q5SSJ5 1-553) | binds | binds
DDX5 (from UniProt P17844 1-614) | binds | binds
DNM1L (from UniProt O00429 1-736) | binds | binds
CDC5L (from UniProt Q99459 1-802) | binds | binds
HNRNPK (from UniProt P61978 1-463) | binds | binds
B1 | binds | binds
B2 | binds | binds
B3 | binds | binds
B4 | binds | binds
B5 | binds | binds
B6 | binds | binds

Results are given in words; binding and its absence hold for the method and conditions named. In cells and extracts the contact can be indirect. These calls come from enrichment with a bait or labelling near it, and not all partners need be listed.
